Some of the results follow. These are further read-outs of the screen, such as a control signal, another cell line or another target. No call is given for them. Most of these compounds were active or inconclusive in the main read-out, so they are no random draw. Potencies come from curve fits of mixed quality, noted in brackets.
Assay: qHTS Assay for Lipid Storage Modulators in Drosophila S3 Cells;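 on cell number change: cells counted by Cell Tracker Red CMTPX staining in the red channel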
Conditions: BODIPY lipid droplet fluorescence, 18-24 h; for cell number change: measured here: cell count max response, cells fed with added oleic acid
Method in brief: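 Drosophila S3 cells got compounds at several concentrations plus oleic acid (400 uM solution). Laser-scanning cytometry with 488 nm excitation read lipid droplets at 500-530 nm and cells at 575-640 nm. Percent activity was relative to 20 uM Triacsin C.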

[1] = measured here: cell number channel AC50, cells fed with added oleic acid
[2] = measured here: lipid fluorescence (Fed channel) AC50, cells fed with added oleic acid

Row | Compound | cell number change [%] | AC50 [1] | AC50 [2]
1 | CCn1c(=S)ccc2ccc(OC)cc21 | -39.4 | 4.61 µM [falling, partial curve, poor fit] | 6.51 µM [falling, partial curve]
2 | CC1CSc2nc3sc4c(c3c(=O)n21)CCCC4 (stereo not given) | 156 | 13 µM [rising, partial curve] | 
3 | CCN(CC)c1ccc(NC(=O)CN2CCN(CC(=O)Nc3ccc(F)cc3)CC2)cc1 | 3.04 |  | 6.51 µM [falling, single point]
4 | Cc1ccc2cc(-c3noc(C4CCCO4)n3)c(=O)[nH]c2c1 (stereo not given) | 7.8 |  | 0.058 µM [rising, full curve, poor fit]
5 | c1ccc(N2CCCCC2)c(NC2=NCCC2)c1 | 3.79 |  | 0.13 µM [rising, full curve, poor fit]
6 | CC(=O)Nc1ccc(C(=O)NNC(=O)c2cccc(C)c2)cc1 | 33.3 |  | 
7 | CN(CCC(=O)Nc1ccc(Cl)cc1)Cc1ccccc1 | 6.93 |  | 
8 | COc1ccc(C(=O)Nc2cccc(N(C)S(C)(=O)=O)c2)cc1OC | 0.729 |  | 
9 | c1ccc(-c2nnc(CSc3nc4ccccc4[nH]3)o2)cc1 | 5.06 |  | 
10 | Cc1cc(N2CCN(c3ccccc3)CC2)nc2ccccc12 | 18.6 |  | 29.1 µM [falling, single point]
11 | OCc1nc2ccccc2n1CC(O)COc1ccccc1 (stereo not given) | -8.51 |  | 
12 | Cc1cc(NC(=O)Nc2cc(C)nn2-c2ccccc2)n(-c2ccccc2)n1 | -43 | 18.4 µM [falling, single point] | 
13 | CCOC(=O)c1cc(NC(=O)CSCCO)ccc1Cl | -24.4 |  | 0.731 µM [rising, partial curve, poor fit]
14 | COc1ccc(C(=O)Nc2ccc(CN3CCOCC3)cc2)cc1Br | 11.6 |  | 0.58 µM [falling, single point]
15 | c1ccc(Nc2nn[nH]n2)cc1 | 0.37 |  | 6.51 µM [falling, single point]
16 | O=[N+]([O-])c1cccnc1SCc1ccccc1 | 19.2 |  | 8.2 µM [rising, partial curve]
17 | CCOc1cc([N+](=O)[O-])cc2c1C(=O)Nc1ccccc1O2 | 4.89 |  | 23.1 µM [falling, single point]
18 | C=CCN1C(=O)CC(C(=O)NC)SC1=Nc1ccc(C(=O)OCC)cc1 (stereo not given) | 82.5 | 2.91 µM [rising, partial curve] | 1.46 µM [rising, partial curve]
19 | CC(C)c1ccc(NC(=O)COc2nnc(-c3cccs3)c(-c3cccs3)n2)cc1 | 72.7 | 8.2 µM [rising, partial curve] | 3.66 µM [rising, single point]
20 | Cc1cccc(C(=O)NCCc2ccccc2)c1 | 17.5 |  | 0.092 µM [rising, full curve, poor fit]
21 | CC(=O)Nc1nnc(CCS(=O)(=O)c2ccc(Cl)cc2)s1 | -34.6 | 20.6 µM [falling, single point] | 

Row | Compound | cell number change [%] | AC50 [1] | AC50 [2]
22 | CCCSc1nc2ccsc2c(=O)n1CC | -33.2 | 0.164 µM [falling, full curve, poor fit] | 18.4 µM [falling, single point]
23 | CCN(CC)C(=O)c1sc(NC(=O)c2c(OC)cccc2OC)c(C#N)c1C | 3.34 |  | 29.1 µM [rising, single point]
24 | CC(C)OCCCNC1=C(Cl)C(=O)c2ccccc2C1=O | -48 | 29.1 µM [falling, single point] | 18.4 µM [falling, single point]
25 | Cc1nc(SCC(=O)NCc2ccco2)c2c(=O)n(C)c(=O)n(CC(C)C)c2n1 | 10.5 |  | 
26 | CC(=O)C1=C(c2ccccc2)NC(=O)NC1c1cccs1 (stereo not given) | -4 |  | 0.103 µM [rising, full curve]
27 | Cc1cccc(NC(=S)NNC(=O)c2sccc2C)c1 | 35 | 3.26 µM [rising, full curve, poor fit] | 0.259 µM [falling, full curve, poor fit]
28 | Cc1ccccc1Cn1nc(C)c(NC(=O)/C=C/c2cnn(C)c2)c1C | 17.7 |  | 8.2 µM [rising, partial curve]
29 | CCCn1c(SCC(=O)Nc2c(CC)cccc2CC)nnc1C(C)C | 19.4 |  | 3.26 µM [falling, partial curve]
30 | CCOC(=O)c1cc2c(=O)n3ccccc3nc2n(Cc2ccco2)c1=NC(=O)c1cccc(OC)c1 | 79.6 |  | 
31 | NC(=O)c1cc2cc(Cc3ccccc3Cl)ccc2oc1=O | -3.25 |  | 3.26 µM [falling, single point]
32 | CCN1c2ccccc2-c2nc3ccccc3n2C1c1cccs1 (stereo not given) | 12.6 |  | 1.03 µM [falling, full curve, poor fit]
33 | COc1cccc(CC(=O)OCC(=O)NC2CCCC2)c1 | 11.6 |  | 
34 | O=C(COc1cccc(Br)c1)N/N=C1\CCSC1 | 48.5 | 5.8 µM [rising, full curve] | 6.51 µM [rising, partial curve]
35 | O=C(Nc1cccc(C(F)(F)F)c1)Nc1ccon1 | 22.2 |  | 
36 | CC(C)COC(=O)Nc1ccccc1C(=O)N1CCOCC1 | -4.17 |  | 0.13 µM [falling, full curve, poor fit]
37 | COCCNc1nnc(Cc2ccc(OC)c(OC)c2)c(=O)[nH]1 | 15 |  | 11.6 µM [rising, single point]
38 | CC(C)(C(=O)Nc1nccs1)c1ccccc1 |  |  | 6.51 µM [falling, partial curve]
39 | COc1ccc(S(=O)(=O)N2CCN(C(=O)c3ccc(=O)[nH]n3)CC2)cc1OC | -14 |  | 
40 | O=C1CC(N(O)c2ccccc2)C(=O)N1Cc1ccccc1 (stereo not given) | 14.4 |  | 
41 | CCN(CC)C(=O)CNC(=O)c1nn(-c2ccc(OC)c(Cl)c2)c(=O)c2ccccc12 | 20.7 |  | 29.1 µM [rising, single point]
42 | CN(C)c1ccc(N2CN=C3SCC(=O)N3C2)cc1 | -61 | 0.00461 µM [falling, full curve, poor fit] | 1.84 µM [falling, partial curve, poor fit]

Rewritten with tabs: part of the list above
Row	Compound	cell number change [%]	AC50 [1]	AC50 [2]
13	CCOC(=O)c1cc(NC(=O)CSCCO)ccc1Cl	-24.4		0.731 µM [rising, partial curve, poor fit]
14	COc1ccc(C(=O)Nc2ccc(CN3CCOCC3)cc2)cc1Br	11.6		0.58 µM [falling, single point]
15	c1ccc(Nc2nn[nH]n2)cc1	0.37		6.51 µM [falling, single point]
16	O=[N+]([O-])c1cccnc1SCc1ccccc1	19.2		8.2 µM [rising, partial curve]
17	CCOc1cc([N+](=O)[O-])cc2c1C(=O)Nc1ccccc1O2	4.89		23.1 µM [falling, single point]
18	C=CCN1C(=O)CC(C(=O)NC)SC1=Nc1ccc(C(=O)OCC)cc1 (stereo not given)	82.5	2.91 µM [rising, partial curve]	1.46 µM [rising, partial curve]
19	CC(C)c1ccc(NC(=O)COc2nnc(-c3cccs3)c(-c3cccs3)n2)cc1	72.7	8.2 µM [rising, partial curve]	3.66 µM [rising, single point]
20	Cc1cccc(C(=O)NCCc2ccccc2)c1	17.5		0.092 µM [rising, full curve, poor fit]
21	CC(=O)Nc1nnc(CCS(=O)(=O)c2ccc(Cl)cc2)s1	-34.6	20.6 µM [falling, single point]	

Source: PubChem BioAssay AID2685 (National Center for Advancing Translational Sciences (NCATS), 2010)
